Laboratory results from PubChem BioAssay AID248 (DTP/NCI, 2004).
The list is a part of this screen's results and no random one: it covers a few groups of compounds. Not every dose and run of a compound is shown. T/C: endpoint of the treated group in % of that of the vehicle group. For survival time, the PubChem record calls one and a half times the control and up active, and a quarter to a half above the control has no call in these data; cut-offs in other NCI protocols can differ. Some T/C values are marked as having no survivor count here; that says nothing about deaths at the dose. Schedules are NCI's codes, taken here to give the interval after Q, in days (D) or hours (H), and the number of doses after X. Some entries were tested several times; the results are listed from low to high.

System: L1210 leukemia ip in BDF1 mice, survival T/C
Assay: NCI In Vivo Anticancer Drug Screen. Data for tumor model L1210 Leukemia (intraperitoneal) in B6D2F1 (BDF1) mice
Settings: T/C endpoint: mean survival time, vehicle: saline, higher T/C = longer survival

For `CN(CCCl)CCCl.CN(CCCl)CCCl.[Cl][Co][Cl]`, the T/C (dose: 12.5 mg/kg/injection, schedule: Q01DX009 (ip)) was 93 % of control [survivor count not shown], the T/C (dose: 25.0 mg/kg/injection, schedule: Q01DX009 (ip)) was 106 % of control [survivor count not shown] and the T/C (dose: 50.0 mg/kg/injection, schedule: Q01DX009 (ip)) was 111 % of control [survivor count not shown]. For the same compound, the T/C (dose: 50.0 mg/kg/injection, schedule: Q04DX003 (ip)) was 100 [survivor count not shown] and 116 % of control [survivor count not shown], the T/C (dose: 75.0 mg/kg/injection, schedule: Q04DX003 (ip)) was 120 % of control [survivor count not shown] and the T/C (dose: 100.0 mg/kg/injection, schedule: Q01DX009 (ip)) was 116 % of control [survivor count not shown]. For the same compound, the T/C (dose: 100.0 mg/kg/injection, schedule: Q04DX003 (ip)) was 107 [survivor count not shown] and 120 % of control [survivor count not shown] and the T/C (dose: 150.0 mg/kg/injection, schedule: Q04DX003 (ip)) was 100 % of control [survivor count not shown].
